Screen size: about 340,000 compounds; about 170 (0.05%) were called active. This list was built around the results that the source calls inconclusive (neither active nor inactive); the mix of calls is not that of the screen. Calls come from the whole dose curve; as a rule, active = well fitted inhibition curve with a large enough effect in the signal ratio, with a control signal flat (not every such curve was filed as active); inconclusive = small, poorly fitted or top-dose-only effect, or effect the other way, or a change in a side signal; inactive = flat fitted curve, though single readings scatter; the % refers to the signal ratio. Where the call is inconclusive, the potency comes from a doubtful curve fit.
Experiment: qHTS Assay to Find Inhibitors of Chronic Active B-Cell Receptor Signaling;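 for activity change, negative = inhibition: plate controls were basal doxycycline-induced cells for no effect and cells given 10 µM MG132 for full effect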
Conditions: ABC-DLBCL IkBa-CBG/CBR reporter, luminescence ratio (green luciferase fused to IkBa over red control in TMD8 lymphoma cells), 4 h; activity change, negative = inhibition: at 46.1 µM (top of the series)
Outline: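 Concentration-response series (up to 46 uM) were applied to TMD8 dual-reporter cells for 4 h at 37C with doxycycline. Green/red ratio, after filter-overlap correction, defined %Activity; red signal alone was normalised to basal cells and zero luminescence.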
Potency is the fitted concentration of half-maximal effect.

| Compound | activity change, negative = inhibition | Potency |
| --- | --- | --- |
| CCOc1ccc(NC(=O)/C=C/c2ccccc2)c([N+](=O)[O-])c1 | inconclusive: -0.662% |  |
| COCCNC(=O)Cc1c(C)c2c(cc(C)c3c(C)coc32)oc1=O | inconclusive: -0.354% |  |
| Cc1cc(C)nc(NS(=O)(=O)c2ccc(NC(=O)c3cccs3)cc2)n1 |  | inconclusive: 14.1 µM [falling, single point] |
| Cc1ccc(C(=O)N/N=C/c2ccc([N+](=O)[O-])s2)cc1 | inactive: -0.117% |  |
| Cn1c(=O)n(Cc2ccccc2Cl)c2ccccc21 | inconclusive: -15.3% |  |
| COc1ccc(C(CNC(=O)c2ccc(C)c(S(=O)(=O)Nc3ccccc3OC)c2)N2CCCC2)cc1 (centres undefined) | inconclusive: -16.2% |  |
| Cc1cc(O)c(C(C)C)cc1NC1=NS(=O)(=O)c2ccccc21 | inconclusive: -10.8% |  |
| O=C(CCl)N(CCCNC(=O)C(F)(F)F)c1ccc([N+](=O)[O-])cc1 | inactive: 16.2% |  |
| Cn1c(N)c(C(=O)COC(=O)CN2C(=O)c3ccccc3C2=O)c(=O)n(C)c1=O | inconclusive: -14.8% |  |
| Oc1ccc(Cl)cc1C=Nc1ccc(Br)cc1 |  | inconclusive: 0.282 µM [falling, full curve] |
| COc1ccc(CNC(=O)C(c2ccc(C)o2)N(Cc2cccs2)C(=O)Cc2cccs2)cc1 (centres undefined) | inconclusive: 0.393% |  |
| COc1ccc(CCc2nnc(CCC(=O)NCc3cc(C(C)C)no3)o2)cc1 | inconclusive: 4.1% |  |
| CCOC(=O)COn1c(=O)c(-c2ccco2)[n+]([O-])c2ccccc21 | inconclusive: -6.8% |  |
| C(=N\n1cnnc1)/c1cccnc1 | inconclusive: 9.48% |  |
| O=C(OCC(=O)N1CCC(Cc2ccccc2)CC1)c1ccccc1O | inconclusive: -6.92% |  |
| Cc1ccc(S(=O)(=O)NCCc2ccc(S(N)(=O)=O)cc2)cc1 | inconclusive: 14% |  |
| CC(C)(C)c1ccc(OCc2ccc(C(=O)N/N=C/c3ccc(O)c(O)c3)cc2)cc1 |  | inconclusive: 22.4 µM [falling, single point] |
| CCN1CCn2c3c(c4cc(C)ccc42)CCCC31 (centres undefined) | inconclusive: 0.414% |  |
| O=C(CSc1nnc2n1CCCN2)c1ccccc1 |  | inconclusive: 35.5 µM [falling, single point] |
| Cc1cc(=O)[nH]c(SCC(=O)Nc2ccccc2C#N)c1C#N |  | inconclusive: 0.461 µM [rising, full curve, poor fit] |
| Nc1nnc(SCC(=O)c2ccc3ccccc3c2)s1 | inconclusive: -10.5% |  |
| CC(=O)Nc1ccc(NC(=O)COc2cccc3c2OC(C)(C)C3)cc1 |  | inconclusive: 8.91 µM [falling, partial curve] |
| CCC1CN(C(=O)NCc2cccc(OC)c2)c2cc(Cl)ccc2O1 (centres undefined) | inconclusive: -5.8% |  |
| c1ccc2c(c1)Cn1nc(Cc3nc4c(s3)CCCC4)nc1-2 | inconclusive: 3.51% |  |
| COc1ccccc1CNC(=O)OCc1nccnc1C(=O)Nc1ccc(Br)cn1 | inconclusive: -0.351% |  |
| COc1ccc(Cl)cc1-n1c(C)cc(C(=O)OCC(=O)N2CC(=O)Nc3ccccc32)c1C | inconclusive: -14.7% |  |
| CCOC(=O)c1c(C)[nH]c(C)c1C(=O)COC(=O)c1ccc(Cl)c(S(=O)(=O)NCc2ccccc2)c1 | inactive: -24.2% |  |

Quoted from the listing:
Under activity change, negative = inhibition, `CCN1CCn2c3c(c4cc(C)ccc42)CCCC31` (centres undefined) has inconclusive: 0.414%
Under activity change, negative = inhibition, `CCOC(=O)c1c(C)[nH]c(C)c1C(=O)COC(=O)c1ccc(Cl)c(S(=O)(=O)NCc2ccccc2)c1` has inactive: -24.2%
Under activity change, negative = inhibition, `Cc1ccc(C(=O)N/N=C/c2ccc([N+](=O)[O-])s2)cc1` has inactive: -0.117%
Under activity change, negative = inhibition, `COc1ccccc1CNC(=O)OCc1nccnc1C(=O)Nc1ccc(Br)cn1` has inconclusive: -0.351%
Under activity change, negative = inhibition, `C(=N\n1cnnc1)/c1cccnc1` has inconclusive: 9.48%

The list continues:

| Compound | activity change, negative = inhibition | Potency |
| --- | --- | --- |
| COc1ccc(NC2=Nc3ccccc3CC2)cc1 |  | inconclusive: 25.9 µM [falling, single point] |
| O=C(Nc1ccccc1C(=O)O)c1cccc(S(=O)(=O)Nc2ccc(Br)cc2)c1 | inconclusive: 2.76% |  |
| CCC(=O)Nc1cc(SCCO)cc([N+](=O)[O-])c1 | inactive: 4.57% |  |
| Cn1c2ccccc2c(=O)c2c(=O)n(Cc3ccco3)c(-c3ccc(Cl)cc3Cl)nc21 |  | inconclusive: 12.6 µM [falling, partial curve] |
| CCOC(=O)C1CCN(C(=O)c2ccccc2NC(=O)c2ccc(Cl)cc2)CC1 | inconclusive: 0.293% |  |
| Cc1ccc(C(NC(=O)C2CCCCC2)c2c(O)ccc3ccccc23)cc1 (centres undefined) | inconclusive: 14.8% |  |
| COc1cccc(CN(C)C(=O)CCc2nnc(-c3ccsc3)o2)c1 | inconclusive: 0.193% |  |
| CCOc1ncccc1C(=O)OCc1ccc(C(=O)OC)cc1 | inconclusive: -17% |  |
| CC(C)Cn1c(SCC(=O)NC(=O)NC2CCCC2)nc2ccccc21 | inconclusive: -7.49% |  |
| COc1ccc(F)cc1S(=O)(=O)Nc1ccc(C)cc1 | inactive: 2.65% |  |
| O=C(NCc1nnc(SCC(=O)N2CCCC2)o1)c1ccccc1F | inconclusive: 14.6% |  |
| Cc1sc2ncnc(NCC(C)(C)N3CCOCC3)c2c1C | inactive: -2.11% |  |
| CCOC(=O)C1(C)/C(=N/Nc2ccccc2OC)C(=O)C(=O)N1c1ccccc1 (centres undefined) | inconclusive: -25.4% |  |
| O=C(O)CCC(=O)N1N=C(c2ccc(Br)cc2)CC1c1ccc(Br)cc1 (centres undefined) | inactive: 3.64% |  |
| CCN(CC)CCCNC(=O)c1c(O)c2cc(F)cc3c2n(c1=O)C(C)CC3 (centres undefined) | inconclusive: -11% |  |
| Cc1cc(N2CCN(c3ccc(F)cc3)CC2)nc2cc(O)ccc12 | inactive: -4.14% |  |
| CCCC(=O)Nc1nc2ccc(NC(=O)c3c(F)c(F)c(OC)c(F)c3F)cc2s1 | inconclusive: -19.6% |  |
| O=C(c1ccccc1)c1nn(-c2ccccc2)c2nnc(Cc3ccccc3)c(=O)n12 | inactive: 12.8% |  |
| O=C(c1ccccc1)c1cc([N+](=O)[O-])ccc1N1CCOCC1 |  | inconclusive: 16.4 µM [falling, single point] |
| CC(C)OC(=O)CSc1nc2cc3c(cc2cc1C#N)OCO3 | inconclusive: 13.9% |  |
| COc1ccc(C(=O)/C=C/C(=O)N(Cc2ccc(F)cc2)C(C(=O)NC2CCCCC2)c2ccncc2)c(O)c1 (centres undefined) | inconclusive: -4.91% |  |
| c1ccc(C2CSc3ccccc3N2)cc1 (centres undefined) | inactive: -0.58% |  |
| O=C(Nc1ccccc1F)N1CCc2ccccc2C1 |  | inconclusive: 35.5 µM [rising, single point] |
| CC(C)(C)OC(=O)Nc1ccc([C@@H](NC(=O)OC(C)(C)C)C(=O)OC(C)(C)C)cc1 | inactive: -1.99% |  |
| COc1ccccc1CNC(=O)CN(c1cccc([N+](=O)[O-])c1)S(C)(=O)=O | inactive: -1.44% |  |
| COc1ccc(-c2c(-c3cc(OC)cc(OC)c3)n(C)c3ccc(-c4cnc(OC)nc4)cc23)cc1 | inactive: -0.256% |  |
| CCCCOc1ccc(C(=O)N/C(=C\c2ccc([N+](=O)[O-])cc2)C(=O)OCc2ccco2)cc1 | inconclusive: 11% |  |

| Compound | activity change, negative = inhibition | Potency |
| --- | --- | --- |
| Cc1[nH]c2c(Br)cccc2c1[C@H]1[C@@H](CC#N)C1(C)C |  | inconclusive: 23.1 µM [falling, partial curve] |
| CCOC(=O)c1sc(NC(=O)C2CCC2)cc1C |  | inconclusive: 17.8 µM [falling, partial curve, poor fit] |
| CCCNC(=O)CSCc1nc(-c2ccc(SC)cc2)oc1C |  | inconclusive: 12.6 µM [rising, single point] |
| Cc1cc(Nc2ccccc2)nc(N)n1 |  | inconclusive: 3.98 µM [falling, partial curve] |
| Cn1cc([N+](=O)[O-])c(C(=O)N/N=C/c2cc3c(cc2Br)OCO3)n1 | inconclusive: -10.9% |  |
| Cc1cccc(N2CCN(C(=O)c3cccc(NC4=NC5CS(=O)(=O)CC5S4)c3)CC2)c1C (centres undefined) |  | inconclusive: 11.2 µM [falling, partial curve, poor fit] |
| O=C(N1CCCC1)n1c(Cc2ccccc2)nc2ccccc21 | inconclusive: 0.256% |  |
| CC(=O)c1c(C)[nH]c(C(=O)OCC(=O)N2CCN(S(=O)(=O)c3ccc(C)cc3)CC2)c1C | inconclusive: 13.2% |  |
| O=C(NC1CCN(C(=O)N2c3ccccc3Sc3ccccc32)CC1)c1ccccc1Cl |  | inconclusive: 35.5 µM [falling, single point] |
| CCCCN(C(=O)CCSc1ccc(F)cc1)c1c(N)n(Cc2ccccc2)c(=O)[nH]c1=O | inactive: -6.9% |  |
| C=CCO/N=C(/C)c1ccc(Oc2cnccn2)cc1 | inconclusive: 5.21% |  |
| O=C1N(c2cccc3ccccc23)C(c2ccccc2)N2CCCN12 (centres undefined) |  | inconclusive: 9.2 µM [falling, partial curve] |
| COc1cc(C(=O)NCC(=O)N/N=C/c2ccc(-c3ccc([N+](=O)[O-])cc3)o2)cc(OC)c1OC | inactive: -13.8% |  |
| COc1ccc(CCC(=O)Nc2cc3c4c(c2)CC(=O)N4CCC3)cc1 | inconclusive: -1.13% |  |
| O=C(O)CN(c1ccc2c(c1)OCCO2)S(=O)(=O)c1ccccc1 | inconclusive: 5.67% |  |
| O=C(Cc1ccc(Br)cc1)N/N=C/c1ccc(-c2cccc(C(=O)O)c2)o1 | inconclusive: -12.9% |  |
| O=C(NN=C1CCCC1)c1ccc(O)cc1 |  | inconclusive: 5.62 µM [falling, partial curve] |
| COc1ccc(/C=C/C2=NC(=C\N(C)C)/C(=O)O2)cc1 | inconclusive: -5.25% |  |
| O=C(Nc1ccc(OCC(=O)N2CCC(Cc3ccccc3)CC2)cc1)c1ccco1 |  | inconclusive: 16.4 µM [falling, single point] |
| CO/N=C(/CNC(=O)c1ccc(Cl)cc1Cl)c1ccc(Cl)cc1 |  | inconclusive: 35.5 µM [falling, single point] |
| Cc1ccccc1OCC(=O)Nc1ccc(C(=O)Nc2ccccc2C(=O)O)cc1 | inactive: -0.305% |  |
| Cc1cc([N+](=O)[O-])cc2c1NC(=O)C2(O)N1CCOCC1 (centres undefined) |  | inconclusive: 17.8 µM [falling, single point] |
| Cc1[nH]n(-c2ccc(Cl)c(Cl)c2)c(=O)c1CCO | inconclusive: -12.4% |  |
| COc1ccc(N2CCN(C(=O)CSc3nnc(-c4cccnc4)n3-c3ccccc3)CC2)cc1 | inconclusive: 16.7% |  |
| COC(=O)[C@@]12CCCN1[C@H](c1ccc(-c3ccc(OC)cc3)cc1)[C@@H]1C(=O)N(C)C(=O)[C@@H]12 | inactive: 18.7% |  |
